# This is one part of the list.
# B1: GS13599A-bth-520-23-520 (Bacteroides thetaiotaomicron) (protein)
# chain: SEDTMDRINKDHDHTTSVASRFILADVITSTAFSNASGDINTYASSYIEYEVGVDNQLYYAEVRENEPSSSSTFNNSWNGIYSSLKNARIIIDQCGEGGRDHGNDVTRGMAEVMAAYNCALIADFFGDAPCSQAALVDEKGSPVYMTPKMDTQQEIYTQIISYLDDAIANLQKEDLADVTEQDFLYAGDADKWLKFAYGLKARYTMRLINRSSNKSADYEKVLDYVSKSFTSADDQAAFDIYDSNNINPFYGFYNSRAGFGASTSLGTKLLAYNDPRANRAFFTPIVDKKRSQVAANDPSLVPAPNGSPDQSTSKYGISAFVYAKTAPTLLMSYHELMFLKAEALCRLNRDAEDALKEAVVAGLLNAENSISIAIKELGSGLNTNSSEVITETSAGKYFDDVVKAKYAANPLQETMIQKYLAMWGASGEATETYNDFRRMKGLNENFITLTNPNNSSKFPLRYPYGNSDTAANPEVKAAYGNGDYVYSEPVWWAGGSR
# How the values were obtained:
# Assay in all cases: glycan array binding signal (z-score within array); higher = stronger binding
# Conditions in all cases: glycan notation: IUPAC condensed, linker removed
# [1] = target: Gal(b1-4)GlcNAc(b1-3)Gal(b1-4)GlcNAc(b1-3)Gal(b1-4)GlcNAc(b1-3)Gal(b1-4)GlcNAc(b1-2)Man(a1-3)[Gal(b1-4)GlcNAc(b1-3)Gal(b1-4)GlcNAc(b1-3)Gal(b1-4)GlcNAc(b1-3)Gal(b1-4)GlcNAc(b1-2)Man(a1-6)]Man(b1-4)GlcNAc(b1-4)[Fuc(a1-6)]GlcNAc
# Summary of the method: (§1)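 Glycan array binding is given as a within-array Z-score, which can be read as non-binding when negative. The arrays, 3228 of them, came from the Consortium for Functional Glycomics database and were retained only where the protein sequence was available. Z-scores were averaged across arrays of the same protein sequence at different concentrations or buffers and across linkers.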
# [2] = target: Gal(b1-4)GlcNAc(b1-3)Gal(b1-4)GlcNAc(b1-3)Gal(b1-4)GlcNAc(b1-3)Gal(b1-4)GlcNAc(b1-2)[Gal(b1-4)GlcNAc(b1-3)Gal(b1-4)GlcNAc(b1-3)Gal(b1-4)GlcNAc(b1-3)Gal(b1-4)GlcNAc(b1-6)]Man(a1-6)[Gal(b1-4)GlcNAc(b1-3)Gal(b1-4)GlcNAc(b1-3)Gal(b1-4)GlcNAc(b1-3)Gal(b1-4)GlcNAc(b1-2)Man(a1-3)]Man(b1-4)GlcNAc(b1-4)[Fuc(a1-6)]GlcNAc
# Summary of the method: as §1
# [3] = target: Gal(b1-4)GlcNAc(b1-3)Gal(b1-4)GlcNAc(b1-3)Gal(b1-4)GlcNAc(b1-3)Gal(b1-4)GlcNAc(b1-3)Gal(b1-4)GlcNAc(b1-2)Man(a1-3)[Gal(b1-4)GlcNAc(b1-3)Gal(b1-4)GlcNAc(b1-3)Gal(b1-4)GlcNAc(b1-3)Gal(b1-4)GlcNAc(b1-3)Gal(b1-4)GlcNAc(b1-2)Man(a1-6)]Man(b1-4)GlcNAc(b1-4)GlcNAc
# Summary of the method: as §1
# [4] = target: Gal(b1-4)GlcNAc(b1-3)Gal(b1-4)GlcNAc(b1-3)Gal(b1-4)GlcNAc(b1-3)Gal(b1-4)GlcNAc(b1-3)Gal(b1-4)GlcNAc(b1-2)Man(a1-3)[Gal(b1-4)GlcNAc(b1-3)Gal(b1-4)GlcNAc(b1-3)Gal(b1-4)GlcNAc(b1-3)Gal(b1-4)GlcNAc(b1-3)Gal(b1-4)GlcNAc(b1-2)Man(a1-6)]Man(b1-4)GlcNAc(b1-4)[Fuc(a1-6)]GlcNAc
# Summary of the method: as §1
# [5] = target: Gal(b1-4)GlcNAc(b1-3)Gal(b1-4)GlcNAc(b1-3)Gal(b1-4)GlcNAc(b1-3)Gal(b1-4)GlcNAc(b1-3)Gal(b1-4)GlcNAc(b1-2)[Gal(b1-4)GlcNAc(b1-3)Gal(b1-4)GlcNAc(b1-3)Gal(b1-4)GlcNAc(b1-3)Gal(b1-4)GlcNAc(b1-3)Gal(b1-4)GlcNAc(b1-6)]Man(a1-6)[Gal(b1-4)GlcNAc(b1-3)Gal(b1-4)GlcNAc(b1-3)Gal(b1-4)GlcNAc(b1-3)Gal(b1-4)GlcNAc(b1-3)Gal(b1-4)GlcNAc(b1-2)Man(a1-3)]Man(b1-4)GlcNAc(b1-4)[Fuc(a1-6)]GlcNAc
# Summary of the method: as §1
# [6] = target: Gal(b1-4)GlcNAc(b1-3)Gal(b1-4)GlcNAc(b1-3)Gal(b1-4)GlcNAc(b1-3)Gal(b1-4)GlcNAc(b1-3)Gal(b1-4)GlcNAc(b1-3)Gal(b1-4)GlcNAc(b1-2)Man(a1-3)[Gal(b1-4)GlcNAc(b1-3)Gal(b1-4)GlcNAc(b1-3)Gal(b1-4)GlcNAc(b1-3)Gal(b1-4)GlcNAc(b1-3)Gal(b1-4)GlcNAc(b1-3)Gal(b1-4)GlcNAc(b1-2)Man(a1-6)]Man(b1-4)GlcNAc(b1-4)GlcNAc
# Summary of the method: as §1
# [7] = target: Gal(b1-4)GlcNAc(b1-3)Gal(b1-4)GlcNAc(b1-3)GalNAc
# Summary of the method: as §1
# [8] = target: Gal(b1-4)GlcNAc(b1-3)Gal(b1-4)GlcNAc(b1-3)[Gal(b1-4)GlcNAc(b1-3)Gal(b1-4)GlcNAc(b1-6)]GalNAc
# Summary of the method: as §1
# [9] = target: Gal(b1-4)GlcNAc(b1-3)Gal(b1-4)GlcNAc(b1-6)[Gal(b1-3)]GalNAc
# Summary of the method: as §1
# [10] = target: Gal(b1-4)GlcNAc(b1-3)Gal(b1-4)[Fuc(a1-3)]GlcNAc(b1-3)Gal(b1-4)[Fuc(a1-3)]GlcNAc
# Summary of the method: as §1
# [11] = target: Gal(b1-4)GlcNAc(b1-3)GalNAc
# Summary of the method: as §1
# [12] = target: Gal(b1-4)GlcNAc(b1-3)[Fuc(a1-3)GlcNAc(b1-6)]Gal(b1-4)Glc
# Summary of the method: as §1
# [13] = target: Gal(b1-4)GlcNAc(b1-3)[Gal(b1-4)GlcNAc(b1-6)]Gal(b1-4)GlcNAc
# Summary of the method: as §1
# [14] = target: Gal(b1-4)GlcNAc(b1-3)[GlcNAc(b1-6)]Gal(b1-4)GlcNAc
# Summary of the method: as §1
# [15] = target: Gal(b1-4)GlcNAc(b1-6)Gal(b1-4)GlcNAc
# Summary of the method: as §1
# [16] = target: Gal(b1-4)GlcNAc(b1-6)GalNAc
# Summary of the method: as §1
# [17] = target: Gal(b1-4)GlcNAc(b1-6)[Gal(b1-3)]GalNAc
# Summary of the method: as §1
# [18] = target: Gal(b1-4)GlcNAc(b1-6)[Gal(b1-4)GlcNAc(b1-3)]GalNAc
# Summary of the method: as §1
# Gal(b1-4)GlcNAc6P = target: Gal(b1-4)GlcNAc6P
# Summary of the method: as §1
# Gal(b1-6)Gal = target: Gal(b1-6)Gal
# Summary of the method: as §1
# Gal3S(b1-3)GalNAc = target: Gal3S(b1-3)GalNAc
# Summary of the method: as §1
# Gal3S(b1-3)GlcNAc = target: Gal3S(b1-3)GlcNAc
# Summary of the method: as §1
# [19] = target: Gal3S(b1-3)[Fuc(a1-4)]GlcNAc
# Summary of the method: as §1
# Gal3S(b1-4)Glc = target: Gal3S(b1-4)Glc
# Summary of the method: as §1
# Gal3S(b1-4)Glc6S = target: Gal3S(b1-4)Glc6S
# Summary of the method: as §1
# Gal3S(b1-4)GlcNAc = target: Gal3S(b1-4)GlcNAc
# Summary of the method: as §1
# [20] = target: Gal3S(b1-4)[Fuc(a1-3)]Glc6S
# Summary of the method: as §1
# [21] = target: Gal3S(b1-4)[Fuc(a1-3)]GlcNAc
# Summary of the method: as §1
# [22] = target: Gal3S(b1-4)[Fuc(a1-3)]GlcNAc6S
# Summary of the method: as §1
# Gal3S4S(b1-4)GlcNAc = target: Gal3S4S(b1-4)GlcNAc
# Summary of the method: as §1
# Gal3S6S(b1-4)GlcNAc = target: Gal3S6S(b1-4)GlcNAc
# Summary of the method: as §1
# Gal3S6S(b1-4)GlcNAc6S = target: Gal3S6S(b1-4)GlcNAc6S
# Summary of the method: as §1
# Gal4S(b1-4)GlcNAc = target: Gal4S(b1-4)GlcNAc
# Summary of the method: as §1
# Gal4S6S(b1-4)GlcNAc = target: Gal4S6S(b1-4)GlcNAc
# Summary of the method: as §1
# Gal6P(b1-4)GlcNAc = target: Gal6P(b1-4)GlcNAc
# Summary of the method: as §1
# Gal6S(b1-3)GlcNAc = target: Gal6S(b1-3)GlcNAc
# Summary of the method: as §1
# Gal6S(b1-3)GlcNAc6S = target: Gal6S(b1-3)GlcNAc6S
# Summary of the method: as §1
# Gal6S(b1-4)Glc = target: Gal6S(b1-4)Glc
# Summary of the method: as §1
binder,measurement,setting,value
B1,glycan array binding signal (z-score),[1],2.46
same,glycan array binding signal (z-score),[2],1.45
same,glycan array binding signal (z-score),[3],3.9
same,glycan array binding signal (z-score),[4],1.1
same,glycan array binding signal (z-score),[5],7.02
same,glycan array binding signal (z-score),[6],0.294
same,glycan array binding signal (z-score),[7],0.643
same,glycan array binding signal (z-score),[8],1.55
same,glycan array binding signal (z-score),[9],-0.028
same,glycan array binding signal (z-score),[10],-0.327
same,glycan array binding signal (z-score),[11],-0.547
same,glycan array binding signal (z-score),[12],-0.616
same,glycan array binding signal (z-score),[13],2.22
same,glycan array binding signal (z-score),[14],-0.103
same,glycan array binding signal (z-score),[15],-0.338
same,glycan array binding signal (z-score),[16],1.11
same,glycan array binding signal (z-score),[17],-0.003
same,glycan array binding signal (z-score),[18],-0.112
same,glycan array binding signal (z-score),Gal(b1-4)GlcNAc6P,1.51
same,glycan array binding signal (z-score),Gal(b1-6)Gal,0.348
same,glycan array binding signal (z-score),Gal3S(b1-3)GalNAc,1.89
same,glycan array binding signal (z-score),Gal3S(b1-3)GlcNAc,-0.554
same,glycan array binding signal (z-score),[19],-0.068
same,glycan array binding signal (z-score),Gal3S(b1-4)Glc,3.17
same,glycan array binding signal (z-score),Gal3S(b1-4)Glc6S,-0.259
same,glycan array binding signal (z-score),Gal3S(b1-4)GlcNAc,-0.657
same,glycan array binding signal (z-score),[20],0.291
same,glycan array binding signal (z-score),[21],1.1
same,glycan array binding signal (z-score),[22],0.538
same,glycan array binding signal (z-score),Gal3S4S(b1-4)GlcNAc,0.609
same,glycan array binding signal (z-score),Gal3S6S(b1-4)GlcNAc,-0.466
same,glycan array binding signal (z-score),Gal3S6S(b1-4)GlcNAc6S,0.601
same,glycan array binding signal (z-score),Gal4S(b1-4)GlcNAc,-0.548
same,glycan array binding signal (z-score),Gal4S6S(b1-4)GlcNAc,-0.678
same,glycan array binding signal (z-score),Gal6P(b1-4)GlcNAc,0.146
same,glycan array binding signal (z-score),Gal6S(b1-3)GlcNAc,-0.698
same,glycan array binding signal (z-score),Gal6S(b1-3)GlcNAc6S,-0.094
same,glycan array binding signal (z-score),Gal6S(b1-4)Glc,-0.303

# For convenience, part of the list above:
binder,measurement,setting,value
B1,glycan array binding signal (z-score),[20],0.291
same,glycan array binding signal (z-score),[21],1.1
same,glycan array binding signal (z-score),[22],0.538

# Source: the supplement of paper PMC8728848
